Results are given in words; binding and its absence hold for the method and conditions named. Some results given as binding are weak or reduced against the parent protein; the word gives no strength.
Target: His6-SUMO-DNAJB4 (human) (UniProt Q9UDY4)
Test: BLI; His6-SUMO-DNAJB4 on the sensor; Hsc70 with the indicated concentrations of Hsp105; both purified

Protein sequences, listed by entry. Tags and fused reporters are not part of them.
UniProt Q9UDY4: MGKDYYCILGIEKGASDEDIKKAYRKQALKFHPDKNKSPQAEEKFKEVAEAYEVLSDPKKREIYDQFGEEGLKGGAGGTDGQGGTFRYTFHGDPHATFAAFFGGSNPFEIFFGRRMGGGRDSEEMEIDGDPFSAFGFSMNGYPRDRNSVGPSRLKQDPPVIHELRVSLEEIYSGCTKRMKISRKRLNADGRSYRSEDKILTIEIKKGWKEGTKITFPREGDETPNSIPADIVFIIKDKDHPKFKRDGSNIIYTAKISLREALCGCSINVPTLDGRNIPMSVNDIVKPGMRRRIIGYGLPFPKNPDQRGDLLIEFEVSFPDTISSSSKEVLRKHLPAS
UniProt P11142: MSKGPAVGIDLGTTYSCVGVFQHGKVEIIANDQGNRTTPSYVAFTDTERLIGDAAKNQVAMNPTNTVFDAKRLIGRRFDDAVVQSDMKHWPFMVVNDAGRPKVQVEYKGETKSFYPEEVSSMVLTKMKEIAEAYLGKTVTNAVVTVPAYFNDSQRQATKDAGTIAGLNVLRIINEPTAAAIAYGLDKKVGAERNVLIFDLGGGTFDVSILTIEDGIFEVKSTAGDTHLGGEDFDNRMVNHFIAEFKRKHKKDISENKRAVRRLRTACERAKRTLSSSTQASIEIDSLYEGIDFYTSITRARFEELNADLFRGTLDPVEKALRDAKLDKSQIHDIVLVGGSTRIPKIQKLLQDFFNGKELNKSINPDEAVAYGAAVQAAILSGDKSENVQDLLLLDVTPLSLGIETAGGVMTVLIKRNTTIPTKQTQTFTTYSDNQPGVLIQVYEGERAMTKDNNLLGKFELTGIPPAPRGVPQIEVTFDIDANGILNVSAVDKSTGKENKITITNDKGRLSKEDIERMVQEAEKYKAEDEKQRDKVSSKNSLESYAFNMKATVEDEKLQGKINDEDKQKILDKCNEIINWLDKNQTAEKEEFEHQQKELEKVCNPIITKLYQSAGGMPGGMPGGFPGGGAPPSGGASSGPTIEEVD

Q: Which binding does the source give for Hsc70 (from UniProt P11142 1-646) here?
A: Its binding is “binds”.

Reference: publication PMC11479587
